Measurements: PubChem BioAssay AID595 (National Center for Advancing Translational Sciences (NCATS), 2007)
About 310 (0.44%) of roughly 71,000 compounds were called active. Inconclusive means that the source gave no clear call. Such entries were picked first, then a sample of the others. Calls come from the whole dose curve; as a rule, active = well fitted curve in either direction with a large enough effect; inconclusive = small, poorly fitted or top-dose-only effect, or another doubt; inactive = flat fitted curve, though single readings scatter. Potencies of inconclusive entries are doubtful fits and often do not repeat.

test system: Hsp90 C-terminal peptide / TPR2A (Hop) interaction, human; assay: qHTS Assay for Disrupters of an Hsp90 Co-Chaperone Interaction; details: AlphaScreen TPR2A-His6 binding biotin-Hsp90 C-terminal peptide; activity change, negative = inhibition: at 57 µM (top of the series) unless noted
% is set by controls: 0 for no effect and ±100 for the full control effect; potency is the fitted concentration of half-maximal effect.

Structure (SMILES)	activity change, negative = inhibition	Potency
O=C1CCCc2c1cc(C(=O)Nc1ccc(Br)cn1)c(=O)n2-c1ccccc1	inconclusive: 18.6%	–
CSc1ccccc1NC(=O)c1c(C)noc1C	inconclusive: 62.1%	–
Cn1c(-c2ccc(F)cc2)cnc1SCC(=O)Nc1ccccc1N1CCOCC1	–	inconclusive: 20 µM [inhibitor, partial curve]
C=CCSC1=N/C(=C\c2ccsc2)C(=O)S1	–	inconclusive: 39.8 µM [activator, single point]
COCCNc1ncnc2ccc(-c3ccc(C(=O)N(C)C)cc3)cc12	inactive	–
O=C(CSc1nc2ccccc2[nH]1)c1cccs1	inconclusive: 50.1%	–
CCN1CC2=C(OC(N)=C(C#N)C2c2cccs2)/C(=C/c2cccs2)C1 (configuration not stated)	inactive	–
C/C(=C\c1ccccc1)CN1CCN(c2ccccc2)CC1	inactive	–
CCN(CC)c1cc2nonc2c2nonc12	–	inconclusive: 25.1 µM [activator, single point]
COc1ccccc1N=c1scc(-c2ccc3c(c2)NC(=O)CO3)n1CC1CCCO1 (configuration not stated)	–	inconclusive: 20 µM [inhibitor, partial curve]
Cc1onc(-c2ccccc2Cl)c1C(=O)Nc1nn[nH]n1	–	inconclusive: 31.6 µM [inhibitor, single point]
CCC/C=C(\CCC)C(NS(=O)(=O)c1ccc(Cl)cc1)c1ccccc1 (configuration not stated)	–	inconclusive: 25.1 µM [activator, single point]
Cc1cccc(OCC(=O)Nc2ccccc2N2CCCCC2)c1	–	inconclusive: 25.1 µM [activator, single point]
CN(C)c1oc(-c2ccc(OCc3ccccc3)cc2)nc1C#N	–	inconclusive: 15.8 µM [inhibitor, partial curve]
Cc1ccc(-c2cn3c(n2)CCCC3)cc1	inactive	–
CCOC(=O)C1CCCN(S(=O)(=O)c2c(C)c(C)cc(C)c2C)C1 (configuration not stated)	–	inconclusive: 31.6 µM [activator, single point]
Clc1ccc(OCc2nc(-c3ccncc3)no2)c(Cl)c1	–	inconclusive: 31.6 µM [activator, single point]
Oc1ccc2cc(SSc3ccc4cc(O)ccc4c3)ccc2c1	inconclusive: 5.11%	–
c1ccc2nc(N3CCCC3)c(N3CCCC3)nc2c1	–	inconclusive: 12.6 µM [activator, partial curve]
N#C/C(=C\c1ccc(O)c(O)c1)C(=O)OCCc1cccs1	–	active: 3.98 µM
COCCn1c(=O)c(-c2ccc(Cl)cc2)nc2cncnc21	inactive	–
NNC(=O)CCc1ccc2ccc3ccccc3c2c1	inconclusive: 75.1% [at 11 µM]	–

Part of the list above, as a markdown table.

| Structure (SMILES) | activity change, negative = inhibition | Potency |
| --- | --- | --- |
| Cc1cccc(OCC(=O)Nc2ccccc2N2CCCCC2)c1 | – | inconclusive: 25.1 µM [activator, single point] |
| CN(C)c1oc(-c2ccc(OCc3ccccc3)cc2)nc1C#N | – | inconclusive: 15.8 µM [inhibitor, partial curve] |
